Test results: patent US20040197855A1, “Test system for determining gene toxicities” (priority 2001, published 2004)
At least one structure is not confirmed: it was looked up by name or label, or the drawing left a doubt.

Tested on: GalER-VP
Test: Estradiol-inducible expression of I-SceI meganuclease in KMV cells
Format: cell-based, human
Conditions: β-estradiol ≧50 nM added to the medium; GalER expressing cells
Source text: In order to achieve controlled meganuclease expression because of the antiproliferative effect of DSBs, the extremely reliable, β-estradiol-inducible expression system was selected according to a preferred embodiment of the invention (Braselmann, S. et al. (1993) Proc. Natl. Acad. Sci. USA 90: 1657-1661; Dudenhöffer, C. (1999) Oncogene 18: 5773-5784). The expression system couples the so-called Gal4ER transcription factor to an expression cassette controlled by a Gal4ER-responsive promoter (compare FIG. 2). Gal4ER represents a fusion protein of the DNA binding domain of the Gal4 transcription factor with the strong, viral VP16 transactivator domain and a β-estradiol binding domain of the human β-estradiol receptor, making Gal4ER functionally inducible as transcription factor by β-estradiol. This principle of conditional expression permits an inducible increase in protein expression by at least one order of magnitude. […] Inducible I-SceI expression was detected in Western blot experiments. […]

C[C@]12CC[C@@H]3c4ccc(O)cc4CC[C@H]3[C@@H]1CC[C@@H]2O [β-estradiol]
time to switch on and off the expression of the I-SceI meganuclease: ≤ 4 h
